Measurements: patent US6309842A, “Use of modified tethers in screening compound libraries” (Glaxo Wellcome Inc., priority 1997, dated 2001)

Tested on: 3E7 antibody
Assay: Gold sorting of AF12861 beads stained with 3E7 preincubated with YGGFL
Assay type: binding
Conditions: 12.5 nM 3E7

CC(C)C[C@H](NC(=O)[C@H](Cc1ccccc1)NC(=O)CNC(=O)CNC(=O)[C@@H](N)Cc1ccc(O)cc1)C(=O)O [YGGFL]
Sucrose concentration at which 3E7 stained beads precipitate (1 μM YGGFL competition): 44 % sucrose | Sucrose concentration at which 3E7 stained beads precipitate (10 μM YGGFL competition): 44 % sucrose | Sucrose concentration at which 3E7 stained beads precipitate (100 μM YGGFL competition): 38.2 % sucrose | Sucrose concentration at which 3E7 stained beads precipitate (1 mM YGGFL competition): 36.1 % sucrose
